Results deposited as PubChem BioAssay AID1259254 (NCATS, 2017)
Here is an unselected part of about 59,000 reagents. Of all reagents, about 1,550 (2.6%) are marked active. 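G2 share is only a proxy for re-replication; each gene was hit by three separate siRNAs, and active genes were retested.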 Unmarked entries are inactive. The numbers tell different reagents against one gene apart. Further read-outs or replicates are left out here. Not given: the amount of reagent.

Aim: 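Genome-wide screen for genes that prevent DNA re-replication in cancer cells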 (primary screen)
Cell system: human HCT116 colorectal cancer cells
Knock-down reagent: single siRNA against human genes
Duration: 3 days
Measurement: 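Imaged Hoechst DNA stain sorts each cell into a cycle phase by DNA amount; per plate, G2 fraction set to 0% for non-targeting and 100% for GMNN siRNA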
Reading the numbers: G2 robust z-score: higher = more G2 cells, more excess DNA replication
Active means: 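Active siRNAs have a G2 robust z of 5 or more median absolute deviations over the median, which in these data means about 38% or higher of GMNN control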

{"gene knocked down": "KIF5C (GeneID 3800)", "siRNA no.": 1, "G2 robust z-score": 2.58}
{"gene knocked down": "KIF5C (GeneID 3800)", "siRNA no.": 2, "G2 robust z-score": 0.507}
{"gene knocked down": "KIF5C (GeneID 3800)", "siRNA no.": 3, "G2 robust z-score": 0.264}
{"gene knocked down": "AIFM3 (GeneID 150209)", "siRNA no.": 1, "G2 robust z-score": 0.907}
{"gene knocked down": "AIFM3 (GeneID 150209)", "siRNA no.": 2, "G2 robust z-score": -0.713}
{"gene knocked down": "AIFM3 (GeneID 150209)", "siRNA no.": 3, "G2 robust z-score": -0.514}
{"gene knocked down": "BTF3P16 (GeneID 643412)", "siRNA no.": 1, "G2 robust z-score": -0.479}
{"gene knocked down": "BTF3P16 (GeneID 643412)", "siRNA no.": 2, "G2 robust z-score": 0.188}
{"gene knocked down": "BTF3P16 (GeneID 643412)", "siRNA no.": 3, "G2 robust z-score": -0.263}
{"gene knocked down": "SEMA5B (GeneID 54437)", "siRNA no.": 1, "G2 robust z-score": -0.0714}
{"gene knocked down": "SEMA5B (GeneID 54437)", "siRNA no.": 2, "G2 robust z-score": "5.08 (active)"}
{"gene knocked down": "SEMA5B (GeneID 54437)", "siRNA no.": 3, "G2 robust z-score": -0.421}
{"gene knocked down": "OR2T2 (GeneID 401992)", "siRNA no.": 1, "G2 robust z-score": "8.4 (active)"}
{"gene knocked down": "OR2T2 (GeneID 401992)", "siRNA no.": 2, "G2 robust z-score": 2.31}
{"gene knocked down": "OR2T2 (GeneID 401992)", "siRNA no.": 3, "G2 robust z-score": -0.114}
{"gene knocked down": "PRDX1 (GeneID 5052)", "siRNA no.": 1, "G2 robust z-score": 0.56}
{"gene knocked down": "PRDX1 (GeneID 5052)", "siRNA no.": 2, "G2 robust z-score": -0.954}
{"gene knocked down": "PRDX1 (GeneID 5052)", "siRNA no.": 3, "G2 robust z-score": 0.0631}
{"gene knocked down": "CYB5D1 (GeneID 124637)", "siRNA no.": 1, "G2 robust z-score": 1.64}
{"gene knocked down": "CYB5D1 (GeneID 124637)", "siRNA no.": 2, "G2 robust z-score": -1.12}
{"gene knocked down": "CYB5D1 (GeneID 124637)", "siRNA no.": 3, "G2 robust z-score": -0.449}
{"gene knocked down": "LOC645100 (retired record) (GeneID 645100)", "siRNA no.": 1, "G2 robust z-score": -0.368}
{"gene knocked down": "LOC645100 (retired record) (GeneID 645100)", "siRNA no.": 2, "G2 robust z-score": -0.651}
{"gene knocked down": "LOC645100 (retired record) (GeneID 645100)", "siRNA no.": 3, "G2 robust z-score": 0.5}

Active calls, of those listed so far:
{"gene knocked down": "SEMA5B (GeneID 54437)", "siRNA no.": 2, "G2 robust z-score": "5.08 (active)"}
{"gene knocked down": "OR2T2 (GeneID 401992)", "siRNA no.": 1, "G2 robust z-score": "8.4 (active)"}
